# In PubChem BioAssay AID662 (National Center for Advancing Translational Sciences (NCATS), 2007):
# The other results are listed elsewhere or left out. These are further read-outs of the screen, such as a control signal, another cell line or another target. No call is given for them. The list favours compounds with an active or inconclusive main result. Potencies come from curve fits of mixed quality, noted in brackets.
# Test: Cell signaling CRE-BLA (Fsk stim)
# Details: CHO CRE-bla reporter (cAMP response element driving beta-lactamase), forskolin EC10, beta-lactamase ratio; measured here: 460 nm blue channel
# Summary of the method: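 CHO CRE-bla cells, overnight plating in Opti-MEM with 0.5% dialyzed FBS; cpd titration + EC10 NKH 477, 3 h 37 °C; CCF4 2 h RT; ex 405/em 460 vs 530 ratio → %Activity, AC50.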
row,Structure (SMILES),AC50
1,CCOCCCNC(=O)C1CCN(S(=O)(=O)N(CC(C)C)CC(C)C)CC1,"5.01 µM [falling, partial curve, poor fit]"
2,Cc1nc2c(-c3ccccc3)c(C)nn2c(C)c1CCC(=O)O,"10 µM [rising, partial curve]"
3,CCCCNC1C(CC)C(CCC)C(C#N)(C#N)C1(C#N)C#N (configuration not stated),"3.16 µM [falling, full curve]"
4,CC1(C)C=Cc2c(c3ccccc3[nH]c2=O)O1,"10 µM [rising, single point]"
5,O=C(O)C1C2C=CC(C2)C1C(=O)OC1CC2CCC1C2 (configuration not stated),"0.00316 µM [falling, full curve, poor fit]"
6,Cc1sc2nc(SCc3nc4ccccc4[nH]3)n(Cc3ccco3)c(=O)c2c1C,"1.26 µM [rising, full curve]"
7,Cc1cc(C)c(OCC(=O)Nc2ccccc2N2CCOCC2)c(C)c1,"12.6 µM [rising, partial curve]"
8,CCCC1(C(=O)OC)C=C2C(=C(C(C)C)C(=O)C2C)CN1 (configuration not stated),"25.1 µM [rising, single point]"
9,CN(C)c1ccnc(-c2ccccc2C(F)(F)F)n1,"5.01 µM [rising, single point]"
10,Cc1cnc(NC(=O)CSc2nnc(-c3ccccc3)n2Cc2ccccc2)s1,"12.6 µM [rising, partial curve]"
11,COc1ccc2cc(CN(CCCN3CCOCC3)Cc3nnnn3C3CCCCC3)c(=O)[nH]c2c1,"0.794 µM [falling, partial curve]"
12,O=S(=O)(Nc1ccc2c(c1)nc1n2CCN(Cc2ccccc2)C1)c1ccc(F)cc1,"5.01 µM [rising, single point]"
13,Cn1c(=O)cc(OCCCC(=O)NCc2ccccn2)c2ccccc21,"10 µM [rising, single point]"
14,Brc1ccc(-c2nc3ccccc3s2)s1,"3.98 µM [falling, partial curve]"
15,C=CCn1c(NC(=O)c2ccccc2)c(C#N)c2nc3ccccc3nc21,"12.6 µM [rising, partial curve]"
16,CCOC(=O)N1CCC(NC(=O)COc2cc(=O)n(C)c3ccccc23)CC1,"25.1 µM [rising, single point]"
17,COc1ccc(C)cc1S(=O)(=O)N(CC(=O)N1CCCC1)c1ccccc1,"0.00398 µM [falling, full curve, poor fit]"
18,Nc1c(N2CCN(c3ccccc3)CC2)c2ccccc2oc1=O,"0.1 µM [falling, partial curve]"
19,COc1ccc(NC(=O)N2CC[C@@]3(CCCN(C(=O)c4csnn4)C3)C2)cc1,"3.98 µM [falling, single point]"
20,O=C(Nc1ccc(F)cc1F)N1CCCCC1c1cccnc1 (configuration not stated),"0.316 µM [rising, full curve]"
21,COc1cccc(NS(=O)(=O)c2ccc3[nH]cc(C(=O)NCCC(C)C)c(=O)c3c2)c1,"12.6 µM [falling, partial curve]"
22,CCC(C)n1c(SC(C)C#N)nc2ccccc2c1=O (configuration not stated),"10 µM [rising, partial curve]"
23,C1CCN=C(Nc2nc3c(s2)CCCC3)CC1,"3.16 µM [falling, partial curve]"

# By substructure: the compounds so far with a cyano group (3)
row,Structure (SMILES),AC50
3,CCCCNC1C(CC)C(CCC)C(C#N)(C#N)C1(C#N)C#N (configuration not stated),"3.16 µM [falling, full curve]"
15,C=CCn1c(NC(=O)c2ccccc2)c(C#N)c2nc3ccccc3nc21,"12.6 µM [rising, partial curve]"
22,CCC(C)n1c(SC(C)C#N)nc2ccccc2c1=O (configuration not stated),"10 µM [rising, partial curve]"

# More entries.

row,Structure (SMILES),AC50
1,CCc1ccc(NC(=O)N(CCCN2CCOCC2)C(C)c2cc3cccc(OC)c3o2)cc1 (configuration not stated),"3.16 µM [falling, single point]"
2,O=c1oc2cc(OCc3nn[nH]n3)ccc2c2c1CCCC2,"25.1 µM [rising, single point]"
3,COc1cccc(-c2nn(C)c3sc(C(=O)NCc4ccco4)cc23)c1,"15.8 µM [rising, partial curve]"
4,Cc1cccc2cc(COC(=O)C3CCCO3)c(=O)[nH]c12 (configuration not stated),"2.51 µM [falling, partial curve]"
5,CCCN(CCC)C(=O)CSc1nc2n[nH]c(C)c2c(=N)n1-c1ccc(OC)cc1,"0.631 µM [rising, partial curve]"
6,COCCCn1c(SCC(=O)NC(C)C)nnc1-c1ccccc1,"25.1 µM [rising, single point]"
7,CCOC(=O)c1c(NC(=O)CN2CCOCC2)sc2c1CCCC2,"12.6 µM [rising, partial curve]"
8,COc1ccc(-c2noc(CSc3nc4ccccc4c(=O)n3-c3ccccc3)n2)cc1OC,"12.6 µM [rising, partial curve]"
9,O=C(Nc1ccc(NC(=O)C2CC2)nc1)c1cccc(F)c1,"3.98 µM [falling, single point]"
10,Cc1[nH]c2ccccc2c1SCCNC(=O)c1ccc(Br)o1,"20 µM [falling, single point]"
11,COc1ccccc1-n1cc(C(=O)NCC(=O)N2CCN(c3ccccc3)CC2)c2ccccc2c1=O,"20 µM [falling, partial curve, poor fit]"
12,CC(C)C[C@@H](CC(=O)N[C@H](CC(=O)N[C@@H]1CCCC[C@H]1C(=O)N[C@H](CC(=O)N[C@@H](CCC(=O)O)CC(=O)O)CC(C)C)C(C)C)NC(=O)[C@@H]1CNCC[C@H]1N,"25.1 µM [falling, partial curve, poor fit]"
13,Cc1c(NC(=O)C(C)OC(=O)CC2Sc3ccccc3NC2=O)c(=O)n(-c2ccccc2)n1C (configuration not stated),"5.01 µM [falling, single point]"
14,CCN(CC)c1ccc(-n2cc3c(=O)n(C)c(=O)n(C)c3c2)cc1,"10 µM [rising, partial curve]"
15,O=c1c(-c2ccc(F)cc2)nc2cncnc2n1Cc1ccccc1,"25.1 µM [rising, single point]"
16,CCN(CC(=O)NCc1cccs1)c1nnnn1-c1ccccc1,"15.8 µM [falling, single point]"
17,O=C(Nc1cccc2ccccc12)OC1C=CS(=O)(=O)C1 (configuration not stated),"12.6 µM [falling, partial curve]"
18,COc1ccc(S(=O)(=O)NCc2ccco2)cc1-c1nnc2c3ccccc3c(C)nn12,"1.58 µM [rising, partial curve]"
19,CCOC(=O)Nc1cc(OC)c(OC)cc1Cc1nccc2cc(OC)c(OC)cc12,"7.94 µM [rising, partial curve]"
20,CCNc1ncc2nc(-c3cn(C)c4ccccc34)c(=O)n(Cc3cccc(OC)c3)c2n1,"15.8 µM [rising, partial curve]"
21,COc1ccc(-c2nc3cnc(Nc4cccc(OC)c4)nc3n(C[C@H]3CCCO3)c2=O)cc1,"1.58 µM [rising, full curve]"
22,CCc1nnc(NC(=O)CSc2nnc(C3CCCCC3)n2-c2ccccc2)s1,"12.6 µM [rising, partial curve]"
23,Cc1c(NC(=O)c2c(F)c(F)c(F)c(F)c2F)c(=O)n(-c2ccccc2)n1C,"5.01 µM [falling, partial curve]"

row,Structure (SMILES),AC50
1,Cc1nnc(SC(C)C(=O)Nc2ccc3c(c2)OCCO3)s1 (configuration not stated),"3.16 µM [rising, single point]"
2,CNc1ccc(OC(F)F)cc1C(=O)c1ccccc1,"10 µM [rising, partial curve]"
3,Cc1cc(C(=O)CSc2nnc(-c3cccc(F)c3)n2N)c(C)n1Cc1ccc2c(c1)OCO2,"15.8 µM [falling, single point]"
4,CCCCOc1ccccc1NC(=O)Cn1c(-c2nonc2N)nc2ccccc21,"1 µM [rising, full curve, poor fit]"
5,O=C(CC1(O)C(=O)Nc2cc(Cl)cc(Cl)c21)c1ccncc1 (configuration not stated),"3.98 µM [falling, partial curve]"
6,Cc1nc2ccccc2c2oc(C(=O)N3CCc4ccccc43)cc12,"0.501 µM [rising, full curve]"
7,O=C(c1cnn2c(C(F)(F)F)cc(-c3ccco3)nc12)N1CCc2ccccc2C1,"12.6 µM [rising, partial curve]"
8,CCn1c(SCC(=O)N2CCCC2)nc2c(c1=O)SC(C)C2 (configuration not stated),"10 µM [rising, partial curve]"
9,Cc1ccc2nc(N3CCC(C(=O)O)CC3)nc(-c3ccccc3)c2c1,"12.6 µM [rising, partial curve]"
10,CCOC(=O)NCCc1ccc(OC)cc1,"0.631 µM [rising, full curve, poor fit]"
11,Cc1oncc1C(=O)Nc1ccc(C(F)(F)F)cc1,"20 µM [falling, partial curve]"
12,COc1ccc(-c2nnn(CC(=O)OC3CCCCC3)n2)cc1OC,"15.8 µM [rising, single point]"
13,COc1ccc(Nc2cc(C)nc3nc(C)nn23)c(OC)c1,"12.6 µM [rising, partial curve]"
14,N#Cc1nc(Cc2ccccc2)oc1NCCc1ccccc1,"25.1 µM [rising, single point]"
15,c1ccc(N2CCN(CCc3nnc4n3CCCCC4)CC2)cc1,"3.98 µM [falling, partial curve]"
16,CCCCOC(=O)Nc1nnc(CCOCC)s1,"12.6 µM [rising, partial curve]"
17,O=C(CCCCCn1c(=O)[nH]c2ccsc2c1=O)N1CCCCC1,"10 µM [rising, single point]"
18,COc1ccc(-n2nc(C(=O)NCC(=O)N3CCN(c4ccccn4)CC3)c3ccccc3c2=O)cc1,"0.0794 µM [rising, single point]"
19,CN=C(Nc1cc(C)nn1CCC#N)c1ccccc1F,"0.794 µM [falling, single point]"
20,COCCn1c(=O)c(-c2cccc(C#N)c2)nc2cnc(OCc3ccccc3)nc21,"15.8 µM [rising, partial curve]"
21,O=C(COc1ccccc1)Nc1ccccc1N1CCN(c2ccccc2)CC1,"2.51 µM [rising, full curve, poor fit]"
